In PubChem BioAssay AID504327 (National Center for Advancing Translational Sciences (NCATS), 2011):
Hit rate of the full screen: of about 390,000 compounds, about 820 (0.21%) were called active. Inconclusive results, whose numbers are uncertain, are shown with a selection of clear calls. The call rests on the fitted dose curve; in most records, active means well fitted inhibition curve with a large enough effect; inconclusive means small, poorly fitted or top-dose-only effect, or another doubt; inactive means no such curve, though single readings can be large or run the other way. A potency beside an inconclusive call is a rough fit, not a confirmed value. More than one record can exist for a structure, and the calls need not agree.

Sequences of proteins named here, by UniProt entry; tags and fusion partners are left off.
UniProt Q92830, whole entry, looked up: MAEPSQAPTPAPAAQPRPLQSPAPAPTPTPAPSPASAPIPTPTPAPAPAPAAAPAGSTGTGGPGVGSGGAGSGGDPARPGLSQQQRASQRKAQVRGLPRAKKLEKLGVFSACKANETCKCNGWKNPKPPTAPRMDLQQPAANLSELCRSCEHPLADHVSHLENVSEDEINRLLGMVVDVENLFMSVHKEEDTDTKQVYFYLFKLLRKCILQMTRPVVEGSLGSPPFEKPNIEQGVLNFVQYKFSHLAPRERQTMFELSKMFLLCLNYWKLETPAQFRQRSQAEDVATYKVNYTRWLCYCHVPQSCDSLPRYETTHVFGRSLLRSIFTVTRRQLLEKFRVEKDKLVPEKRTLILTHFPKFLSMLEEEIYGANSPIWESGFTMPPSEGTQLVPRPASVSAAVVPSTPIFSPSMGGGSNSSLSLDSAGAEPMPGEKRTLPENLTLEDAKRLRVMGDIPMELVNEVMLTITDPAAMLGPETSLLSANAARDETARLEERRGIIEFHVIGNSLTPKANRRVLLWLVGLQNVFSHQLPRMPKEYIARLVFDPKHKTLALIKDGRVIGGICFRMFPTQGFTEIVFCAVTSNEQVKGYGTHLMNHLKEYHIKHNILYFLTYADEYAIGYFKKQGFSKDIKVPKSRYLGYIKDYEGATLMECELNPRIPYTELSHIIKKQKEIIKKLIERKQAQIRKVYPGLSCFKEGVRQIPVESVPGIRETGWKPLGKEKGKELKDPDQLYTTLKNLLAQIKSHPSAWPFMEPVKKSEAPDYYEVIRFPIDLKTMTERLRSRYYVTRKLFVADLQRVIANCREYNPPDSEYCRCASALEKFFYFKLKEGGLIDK

The compounds below were run against Histone acetyltransferase KAT2A (Homo sapiens) (UniProt Q92830) (assay: qHTS Assay for Inhibitors of GCN5L2). Settings: GCN5L2 HAT assay, ThioGlo1 CoA-SH fluorescence; activity change, negative = inhibition: at 58.9 µM (top of the series) unless noted.
Procedure, shortened: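 ThioGlo1-coupled HAT assay: 20nM GCN5L2, 70uM acetyl-CoA, 75uM H3(1-25) peptide, pH 7.5. Fluorescence read at 340/540nm at start and after 20 min at room temperature.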
On the % scale 0 is the no-effect control and ±100 the full control effect; potency means the concentration at half of the fitted maximal effect.

| SMILES | Potency | activity change, negative = inhibition |
| --- | --- | --- |
| O=C(CC1S/C(=N/N=C2CCCCCC2)NC1=O)Nc1ccccc1F (configuration not stated) | inconclusive: 6.31 µM [inhibitor, single point] | – |
| Cc1cccc(NC(=O)CNC(=O)CCc2nc3sc4c(c3c(=O)[nH]2)CCCC4)c1C | inconclusive: 8.91 µM [inhibitor, partial curve] | – |
| CC(C)(C)OC(=O)NCCCCCO | inconclusive: 8.91 µM [inhibitor, single point] | – |
| CCN1C(=O)[C@H]2[C@@H](c3ccc(-c4cccc(Cl)c4)cc3)N[C@@](CC(C)C)(C(=O)OC)[C@H]2C1=O | – | inactive: -7.59% |
| O=C(NC(=S)Nc1cccnc1)c1cccc(Br)c1 | – | inactive: -0.685% |
| COc1ccc(S(=O)(=O)NCC2CCCN(Cc3ccc(OC)cc3F)C2)cc1 (configuration not stated) | inconclusive: 0.282 µM [inhibitor, full curve, poor fit] | – |
| O=C1S/C(=C\c2ccc(N3CCOCC3)o2)C(=O)N1Cc1ccc(F)cc1 | inconclusive: 39.8 µM [inhibitor, single point] | – |
| CSc1nc(-c2ccco2)nn1C(=O)c1ccc(C)cc1 | – | inactive: 0.395% |
| CCOC(=O)COn1c(-c2cccc(Cl)c2)nc2ccc([N+](=O)[O-])cc21 | inconclusive: 8.91 µM [inhibitor, single point] | – |
| CCOC(=O)C(C)CC(C)C(=O)N1CCOCCOCCN(C(=O)C(C)CC(C)C(=O)OCC)CCOCC1 (configuration not stated) | – | inactive: 22.1% |
| O=C(O)c1ccccc1C(=O)NCCCn1ccnc1 | inconclusive: 39.8 µM [inhibitor, single point] | – |
| CCc1ccc(OCC(=O)N2CCN=C2c2ccccc2)cc1 | inconclusive: 39.8 µM [inhibitor, single point] | – |
| Cc1ccc(C(=O)Nc2ccc(N3CCOCC3)nc2N2CCOCC2)cc1 | – | inactive: 3.1% |
| COc1ccc(/C=C2/C(=O)N(c3c(F)c(F)c(F)c(F)c3F)N=C2C)cc1 | – | inactive: -26.2% |
| Cc1c(NC(=O)Nc2cccc([N+](=O)[O-])c2)c(=O)n(-c2ccccc2)n1C | inconclusive: 0.1 µM [inhibitor, full curve, poor fit] | – |
| CCCCC#Cc1nc(NC)c2ncn([C@@H]3O[C@H](CO)[C@@H](O)[C@H]3O)c2n1 | inconclusive: 15.8 µM [inhibitor, partial curve] | – |
| CCOc1cc(/C=N/O)cc(Br)c1OCc1ccc(Cl)cc1 | inconclusive: 0.447 µM [inhibitor, partial curve, poor fit] | – |
| Clc1ccc(-c2onc3c2CCCC3)cc1 | inconclusive: 6.31 µM [inhibitor, single point] | – |
| O=C(/C=C/c1ccccc1)NCc1ccco1 | inconclusive: 39.8 µM [inhibitor, single point] | – |
| Cc1noc(C)c1CSCC(=O)Oc1ccc(N(C)S(=O)(=O)c2ccccc2)cc1 | – | inactive: -9.54% |
| COc1ccc(-n2c(=O)c(-c3cccs3)nc3cnc(N4CCNCC4)nc32)cc1 | inconclusive: 14.1 µM [inhibitor, partial curve, poor fit] | – |
| CC(=O)Nc1ccc(C2=NN(c3ccccc3)C(c3ccccc3)C2)cc1 (configuration not stated) | inconclusive: 22.4 µM [inhibitor, partial curve] | – |
| COc1ccc2oc(C(=O)OCC(=O)N(C)Cc3ccccc3)c(C)c2c1 | inconclusive: 3.55 µM [inhibitor, full curve, poor fit] | – |
| O=C(O)c1ccccc1C(=O)NC1CCCCNC1=O (configuration not stated) | – | inactive: -2.78% |

| SMILES | Potency | activity change, negative = inhibition |
| --- | --- | --- |
| Cc1ccc(-n2ncc3c2CCCC3NC(=O)c2ccccc2N2CCOCC2)cc1C (configuration not stated) | inconclusive: 11.2 µM [inhibitor, partial curve] | – |
| COc1ccc(CCC(=O)NCc2nc3cccnc3n2Cc2ccc(F)cc2)cc1 | – | inactive: 0.33% |
| OC(c1ccccc1)c1nccc2ccccc12 (configuration not stated) | inconclusive: 0.794 µM [inhibitor, single point] | – |
| O=C(O)C1CCCCC1C(=O)Nc1cc(Cl)ccc1Cl (configuration not stated) | inconclusive: 39.8 µM [inhibitor, single point] | – |
| CCCn1nc2cc(C(=O)NCc3ccc(C)cc3)ccc2c1OC | inconclusive: 0.794 µM [inhibitor, single point] | – |
| CC(C)(C)c1ccc(C(=O)N2CCC(C(=O)c3ccccc3)CC2)cc1 | – | inactive: -12.1% |
| Cc1ccc(-n2c(Cc3cccn3C)nnc2SCC(=O)NCc2ccco2)cc1 | inconclusive: 0.794 µM [inhibitor, single point] | – |
| O=C(COC(=O)c1ccc(Cl)cc1O)NC(=O)C1CCCCC1 | inconclusive: 39.8 µM [inhibitor, single point] | – |
| O=S(=O)(NCCS(=O)(=O)N1CCN(c2ccccc2F)CC1)c1ccc(Cl)cc1 | – | inactive: -2.09% |
| N=c1c2c(ncn1Cc1ccco1)Oc1ccc3ccccc3c1C2c1ccccc1 (configuration not stated) | – | inactive: -11.1% |
| COc1nccnc1NS(=O)(=O)c1ccc(N=Cc2c(C)[nH]n(-c3ccccc3)c2=O)cc1 | – | inactive: -7.42% |
| N[C@@H](CSS(=O)(=O)O)C(=O)O | active: 35.5 µM | – |
| CS(=O)(=O)Nc1cccc(-c2nccc(-n3ccnc3)n2)c1 | – | inactive: -23.5% |
| CCOc1ccc(/C=N/NC(=O)c2ccccc2O)cc1CN1CC2CC(C1)c1cccc(=O)n1C2 (configuration not stated) | inconclusive: 35.5 µM [inhibitor, single point] | – |
| Cc1cc(C)c(S(=O)(=O)/N=C2/C=C(Sc3ncn[nH]3)C(=O)c3ccccc32)cc1C | active: 11.2 µM | – |
| CCn1ccnc1CN1CCCC(CO)(Cc2cccc(OC)c2)C1 (configuration not stated) | – | inactive: -2.52% |
| COc1ccc(CNC(=O)c2ccccc2NC(=O)C2=CSCCO2)c(OC)c1 | inconclusive: 0.1 µM [inhibitor, full curve, poor fit] | – |
| CCOC(=O)c1c(C)[nH]sc1=S | inconclusive: 20 µM [inhibitor, single point] | – |
| Cc1ccc(NC(=O)CSC2=NN3CCCC(=O)N=C3S2)c(C)c1 | – | inactive: 1.41% |
| COc1cc(Cl)c(C)cc1NC(=O)CSc1ncc(S(=O)(=O)c2ccc(C(C)(C)C)cc2)c(=O)[nH]1 | active: 17.8 µM | – |
| CC(C)(Oc1ccc(C2CC2(Cl)Cl)cc1)C(=O)O (configuration not stated) | inconclusive: 39.8 µM [inhibitor, single point] | – |
| CCOC(=O)c1ccc(N2CSC3=C(C#N)C(c4cccs4)CC(=O)N3C2)cc1 (configuration not stated) | inconclusive: 35.5 µM [inhibitor, single point] | – |
| Cc1ccc(C(c2nnnn2C2CCCCC2)N2CCN3CCCC3C2)cc1 (configuration not stated) | active: 0.891 µM | – |
| O=S(=O)(c1ccc(F)cc1)N1CCN(C(=S)NC2CC2)CC1 | – | inactive: -2.49% |

Reformatted as labelled records: part of the list above
COc1ccc(S(=O)(=O)NCC2CCCN(Cc3ccc(OC)cc3F)C2)cc1 (configuration not stated)
  Potency: inconclusive: 0.282 µM [inhibitor, full curve, poor fit]
COc1ccc(/C=C2/C(=O)N(c3c(F)c(F)c(F)c(F)c3F)N=C2C)cc1
  activity change, negative = inhibition: inactive: -26.2%
CCCCC#Cc1nc(NC)c2ncn([C@@H]3O[C@H](CO)[C@@H](O)[C@H]3O)c2n1
  Potency: inconclusive: 15.8 µM [inhibitor, partial curve]
Cc1ccc(-n2ncc3c2CCCC3NC(=O)c2ccccc2N2CCOCC2)cc1C (configuration not stated)
  Potency: inconclusive: 11.2 µM [inhibitor, partial curve]

Further entries follow:

| SMILES | Potency | activity change, negative = inhibition |
| --- | --- | --- |
| COc1cccc(C2Nc3ccc4ccccc4c3C3=C2C(=O)CC(C)(C)C3)c1OCC(=O)O (configuration not stated) | – | inactive: -19.1% |
| CCC(Sc1nnc(-c2ccc(C)c(Cl)c2)n1CC)C(=O)Nc1nccs1 (configuration not stated) | – | inactive: -4.15% |
| O=C(Cc1ccccc1)Nc1sc2c(c1C(=O)Nc1ccc(Cl)cc1)CCCC2 | inconclusive: 39.8 µM [inhibitor, single point] | – |
| CC1=CN2C(=N)/C(=C/c3ccc([N+](=O)[O-])o3)C(=O)N=C2S1 | – | inactive: 24.4% |
| COC(=O)CNC(=O)C1(C)C=CCN1C(=O)c1ccccc1 (configuration not stated) | – | inactive: 1.22% |
| Cc1cc(NC(=O)COc2ccc3oc4ccccc4c3c2)no1 | – | inactive: -1.79% |
| COCc1c(C(=O)OC)nnn1-c1ccc(C(F)(F)F)cc1[N+](=O)[O-] | – | inactive: -1.95% |
| COc1cccc(-c2ccc(NC(=O)C3CCCN(Cc4cnc(N(C)C)s4)C3)cc2)c1 (configuration not stated) | inconclusive: 39.8 µM [inhibitor, single point] | – |
| O=C(O)CCCCCCCCCCCc1ccccc1 | inconclusive: 39.8 µM [inhibitor, single point] | – |
| COc1ccc(-c2csc(NC(=O)c3nc(-c4ccccc4)oc3C)n2)cc1 | inconclusive: 0.355 µM [inhibitor, full curve, poor fit] | – |
| Cc1nc2c(C)cccn2c1/C(O)=C1\C(=O)C(=O)N(CCN2CCOCC2)C1c1ccncc1 (configuration not stated) | inconclusive: 12.6 µM [inhibitor, partial curve, poor fit] | – |
| N#CC(=C(/N)Sc1ccccc1N)/C(C#N)=C(\N)Sc1ccccc1N | inconclusive: 35.5 µM [inhibitor, single point] | – |
| Cc1ccc2c(=O)cc(CSc3nnc(-c4ccccc4)n3C)[nH]c2c1C | – | inactive: -5.95% |
| COc1cccc(NC(=O)CN(C)C(=O)c2cc(-c3cccc(Br)c3)nc3ccccc23)c1 | inconclusive: 0.501 µM [inhibitor, full curve, poor fit] | – |
| COc1ccc(-c2nnn(CC(=O)NCCc3ccc(OC)c(OC)c3)n2)cc1 | inconclusive: 35.5 µM [inhibitor, single point] | – |
| COc1cc(/C=N/NC(=O)c2nnn(-c3nonc3N)c2C(C)C)ccc1OCc1ccccc1 | inconclusive: 39.8 µM [inhibitor, partial curve, poor fit] | – |
| O=C(NC(=S)NCc1ccccc1)c1ccccc1Br | inconclusive: 14.1 µM [inhibitor, partial curve] | – |
| Cc1cc2cc(CN(CCCO)S(=O)(=O)c3cccc4nsnc34)c(=O)[nH]c2cc1C | – | inactive: -2.04% |
| Cc1ccc(N2CCN(CC(O)COc3cccc(C)c3)CC2)cc1 (configuration not stated) | inconclusive: 39.8 µM [inhibitor, single point] | – |
| COc1ccccc1C1=NNC(=Nc2cccc(S(=O)(=O)N(C)C)c2)SC1 | – | inactive: -5.84% |
| COc1ccccc1NS(=O)(=O)c1ccc(O)c(C(=O)OCC(=O)N2CCc3ccccc32)c1 | inconclusive: 35.5 µM [inhibitor, single point] | – |
| O=C(O)c1ccc(-c2nnc(-c3cccc(Br)c3)o2)cc1 | inconclusive: 0.891 µM [inhibitor, partial curve, poor fit] | – |
| O=C(CSc1ncnc2scc(-c3ccccc3)c12)Nc1ccc(C(=O)O)cc1 | – | inactive: -2.88% |
| CN(C)c1ccc(-c2nc(N(C)C)c3ccccc3n2)cc1 | inconclusive: 31.6 µM [inhibitor, partial curve] | – |
